Consider 1 molecule from the supplement of paper PMC8728848.

Assay in all cases: glycan array binding signal (z-score within array); higher = stronger binding
Holding throughout (details): glycan notation: IUPAC condensed, linker removed

In test [1] the target is Gal(b1-4)GlcNAc(b1-2)[Gal(b1-4)GlcNAc(b1-6)]Man(a1-6)[GlcNAc(b1-4)][Gal(b1-4)GlcNAc(b1-2)Man(a1-3)]Man(b1-4)GlcNAc(b1-4)GlcNAc. The procedure, abridged: (§1)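 The binding signal is a Z-score computed within each array and averaged over linkers. Arrays of the same protein sequence at different concentrations or buffers were also averaged together. Data originate from 3228 arrays in the Consortium for Functional Glycomics database, kept only where the protein sequence was available.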

The target in test [2] is Gal(b1-4)GlcNAc(b1-2)[Gal(b1-4)GlcNAc(b1-6)]Man(a1-6)[GlcNAc(b1-4)][Gal(b1-4)GlcNAc(b1-2)[Gal(b1-4)GlcNAc(b1-4)]Man(a1-3)]Man(b1-4)GlcNAc(b1-4)[Fuc(a1-6)]GlcNAc. The procedure, abridged:
as §1

Test [3] addresses Gal(b1-4)GlcNAc(b1-3)Gal(b1-3)GalNAc. The procedure, abridged:
as §1

The target in test [4] is Gal(b1-4)GlcNAc(b1-3)Gal(b1-3)GlcNAc. The procedure, abridged:
as §1

Test [5] concerns the target Gal(b1-4)GlcNAc(b1-3)Gal(b1-4)Glc. In a few lines: as §1
Test [6] addresses Gal(b1-4)GlcNAc(b1-3)Gal(b1-4)GlcNAc. In a few lines: as §1
The target in test [7] is Gal(b1-4)GlcNAc(b1-3)Gal(b1-4)GlcNAc(b1-2)Man(a1-3)[Gal(b1-4)GlcNAc(b1-3)Gal(b1-4)GlcNAc(b1-2)Man(a1-6)]Man(b1-4)GlcNAc(b1-4)GlcNAc. In a few lines: as §1
Test [8] has as its target Gal(b1-4)GlcNAc(b1-3)Gal(b1-4)GlcNAc(b1-2)Man(a1-3)[Gal(b1-4)GlcNAc(b1-3)Gal(b1-4)GlcNAc(b1-2)Man(a1-6)]Man(b1-4)GlcNAc(b1-4)[Fuc(a1-6)]GlcNAc. The procedure, abridged: as §1
The target in test [9] is Gal(b1-4)GlcNAc(b1-3)Gal(b1-4)GlcNAc(b1-2)[Gal(b1-4)GlcNAc(b1-3)Gal(b1-4)GlcNAc(b1-6)]Man(a1-6)[Gal(b1-4)GlcNAc(b1-3)Gal(b1-4)GlcNAc(b1-2)Man(a1-3)]Man(b1-4)GlcNAc(b1-4)GlcNAc. In a few lines: as §1
Test [10] has as its target Gal(b1-4)GlcNAc(b1-3)Gal(b1-4)GlcNAc(b1-2)[Gal(b1-4)GlcNAc(b1-3)Gal(b1-4)GlcNAc(b1-6)]Man(a1-6)[Gal(b1-4)GlcNAc(b1-3)Gal(b1-4)GlcNAc(b1-2)Man(a1-3)]Man(b1-4)GlcNAc(b1-4)[Fuc(a1-6)]GlcNAc. The procedure, abridged: as §1
Test [11] concerns the target Gal(b1-4)GlcNAc(b1-3)Gal(b1-4)GlcNAc(b1-3)Gal(b1-4)GlcNAc. The procedure, abridged:
as §1

In test [12] the target is Gal(b1-4)GlcNAc(b1-3)Gal(b1-4)GlcNAc(b1-3)Gal(b1-4)GlcNAc(b1-2)Man(a1-3)[Gal(b1-4)GlcNAc(b1-3)Gal(b1-4)GlcNAc(b1-3)Gal(b1-4)GlcNAc(b1-2)Man(a1-6)]Man(b1-4)GlcNAc(b1-4)GlcNAc. The procedure, abridged: as §1
Test [13] has as its target Gal(b1-4)GlcNAc(b1-3)Gal(b1-4)GlcNAc(b1-3)Gal(b1-4)GlcNAc(b1-2)Man(a1-3)[Gal(b1-4)GlcNAc(b1-3)Gal(b1-4)GlcNAc(b1-3)Gal(b1-4)GlcNAc(b1-2)Man(a1-6)]Man(b1-4)GlcNAc(b1-4)[Fuc(a1-6)]GlcNAc. In a few lines: as §1
Test [14] concerns the target Gal(b1-4)GlcNAc(b1-3)Gal(b1-4)GlcNAc(b1-3)Gal(b1-4)GlcNAc(b1-2)[Gal(b1-4)GlcNAc(b1-3)Gal(b1-4)GlcNAc(b1-3)Gal(b1-4)GlcNAc(b1-6)]Man(a1-6)[Gal(b1-4)GlcNAc(b1-3)Gal(b1-4)GlcNAc(b1-3)Gal(b1-4)GlcNAc(b1-2)Man(a1-3)]Man(b1-4)GlcNAc(b1-4)[Fuc(a1-6)]GlcNAc. The procedure, abridged: as §1
For test [15], the target named is Gal(b1-4)GlcNAc(b1-3)Gal(b1-4)GlcNAc(b1-3)Gal(b1-4)GlcNAc(b1-3)Gal(b1-4)GlcNAc(b1-2)Man(a1-3)[Gal(b1-4)GlcNAc(b1-3)Gal(b1-4)GlcNAc(b1-3)Gal(b1-4)GlcNAc(b1-3)Gal(b1-4)GlcNAc(b1-2)Man(a1-6)]Man(b1-4)GlcNAc(b1-4)GlcNAc. In a few lines: as §1
The target of test [16] is Gal(b1-4)GlcNAc(b1-3)Gal(b1-4)GlcNAc(b1-3)Gal(b1-4)GlcNAc(b1-3)Gal(b1-4)GlcNAc(b1-2)Man(a1-3)[Gal(b1-4)GlcNAc(b1-3)Gal(b1-4)GlcNAc(b1-3)Gal(b1-4)GlcNAc(b1-3)Gal(b1-4)GlcNAc(b1-2)Man(a1-6)]Man(b1-4)GlcNAc(b1-4)[Fuc(a1-6)]GlcNAc. In a few lines: as §1
The target of test [17] is Gal(b1-4)GlcNAc(b1-3)Gal(b1-4)GlcNAc(b1-3)Gal(b1-4)GlcNAc(b1-3)Gal(b1-4)GlcNAc(b1-2)[Gal(b1-4)GlcNAc(b1-3)Gal(b1-4)GlcNAc(b1-3)Gal(b1-4)GlcNAc(b1-3)Gal(b1-4)GlcNAc(b1-6)]Man(a1-6)[Gal(b1-4)GlcNAc(b1-3)Gal(b1-4)GlcNAc(b1-3)Gal(b1-4)GlcNAc(b1-3)Gal(b1-4)GlcNAc(b1-2)Man(a1-3)]Man(b1-4)GlcNAc(b1-4)[Fuc(a1-6)]GlcNAc. The procedure, abridged: as §1
Test [18] concerns the target Gal(b1-4)GlcNAc(b1-3)Gal(b1-4)GlcNAc(b1-3)Gal(b1-4)GlcNAc(b1-3)Gal(b1-4)GlcNAc(b1-3)Gal(b1-4)GlcNAc(b1-2)Man(a1-3)[Gal(b1-4)GlcNAc(b1-3)Gal(b1-4)GlcNAc(b1-3)Gal(b1-4)GlcNAc(b1-3)Gal(b1-4)GlcNAc(b1-3)Gal(b1-4)GlcNAc(b1-2)Man(a1-6)]Man(b1-4)GlcNAc(b1-4)GlcNAc. The procedure, abridged:
as §1

Test [19] has as its target Gal(b1-4)GlcNAc(b1-3)Gal(b1-4)GlcNAc(b1-3)Gal(b1-4)GlcNAc(b1-3)Gal(b1-4)GlcNAc(b1-3)Gal(b1-4)GlcNAc(b1-2)Man(a1-3)[Gal(b1-4)GlcNAc(b1-3)Gal(b1-4)GlcNAc(b1-3)Gal(b1-4)GlcNAc(b1-3)Gal(b1-4)GlcNAc(b1-3)Gal(b1-4)GlcNAc(b1-2)Man(a1-6)]Man(b1-4)GlcNAc(b1-4)[Fuc(a1-6)]GlcNAc. In a few lines:
as §1

The other results are listed elsewhere or left out.

B1: PX14343C-bfa-541-26-541 (Bacteroides fragilis) (protein)
chain: KAPLDEIADDSFWSDETLVKYYVNDLYSEISVDGLQLQENRSDNSVSAQRDKYRASWFKFNYDMVSASDPQDDDVWEDYYVKVRKCNRFFERIGTSTIEESEKSRLTGEVHFLRAMFYFEMVKRYGGVILLDKVLTMEDNWEIPRSSEKECYDFILEDLKKATEMLPASYGSREKGRATKGAAYALKSRVELYDKRYEDVIKSCAEVYKLGYELVDGTTPEKYRSIWWTTNKDNKEIIFDVQYKSPDVYNNMMVCNMVTYINDKYGDRGWGGLGPTQELIDAFEMADGTPATQYSQAPADQVFDINTCGIYEGREPRFYANIVFHGSQIFFNADKGAVTVDRYLMDTPDKGDGSLTGYNVWKWIDYDNYNYPYAGAGSPDFSTNWIILRYAEIYLNDAEARLETGDVEGARKAVNMIRQRVGLPDLTESDPEKLRELIRKERRIEFAFEEQRFYDVRRWKIGPETQTTLHGVRFVSPTEFKVTKTDIRTWNDRLYLTPVPHDEIVRSSVLKQNLGY
Turning to B1, the “glycan array binding signal (z-score)” value is -0.454 in test [1]; -1.08 in test [2]; -0.401 in test [3]; -0.13 in test [4]; 0.261 in test [5]; 0.076 in test [6]. Moreover, the “glycan array binding signal (z-score)” value was 0.982 in test [7]; -0.17 in test [8]; 0.419 in test [9]; -0.151 in test [10]; -1.14 in test [11]; 1.23 in [12]. Moreover, the “glycan array binding signal (z-score)” value was -0.231 in test [13]; 2.43 in test [14]; 0.477 in test [15]; 1.39 in test [16]; 0.076 in test [17]; 0.519 in test [18]. Besides, the “glycan array binding signal (z-score)” value in test [19] stood at 1.37.
